Drawing on publication PMC3765312, this text covers binding for four molecules.

Holding throughout (experiment): co-IP; Catch and Release v2.0 spin columns; lysates of control and Plin2 overexpression L cells with antibody (1-4 µg) overnight at 4 °C; GLUT1, Plin2 or SNAP23 precipitated in turn; eluates analysed by Western blot (n=3); rabbit IgG as negative control
Test [1] concerns the target T1, GLUT1 (mouse (endogenous in L cells)) (UniProt P17809).
T1 sequence: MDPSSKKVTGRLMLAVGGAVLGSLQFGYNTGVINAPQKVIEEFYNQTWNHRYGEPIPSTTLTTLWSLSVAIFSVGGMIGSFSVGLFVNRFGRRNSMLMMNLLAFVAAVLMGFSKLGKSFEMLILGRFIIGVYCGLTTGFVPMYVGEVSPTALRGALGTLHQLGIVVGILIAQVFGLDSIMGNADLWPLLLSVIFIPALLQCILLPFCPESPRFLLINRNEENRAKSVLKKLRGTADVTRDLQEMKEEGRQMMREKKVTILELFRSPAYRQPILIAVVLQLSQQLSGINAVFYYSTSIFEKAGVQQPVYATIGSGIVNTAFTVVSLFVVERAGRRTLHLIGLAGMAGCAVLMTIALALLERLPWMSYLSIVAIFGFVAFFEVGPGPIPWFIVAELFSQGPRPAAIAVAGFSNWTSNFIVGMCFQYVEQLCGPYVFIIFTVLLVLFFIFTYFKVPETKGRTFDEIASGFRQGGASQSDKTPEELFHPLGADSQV

Test [2] addresses T2, Plin2 (mouse (endogenous in L cells)) (UniProt P43883).
T2 sequence: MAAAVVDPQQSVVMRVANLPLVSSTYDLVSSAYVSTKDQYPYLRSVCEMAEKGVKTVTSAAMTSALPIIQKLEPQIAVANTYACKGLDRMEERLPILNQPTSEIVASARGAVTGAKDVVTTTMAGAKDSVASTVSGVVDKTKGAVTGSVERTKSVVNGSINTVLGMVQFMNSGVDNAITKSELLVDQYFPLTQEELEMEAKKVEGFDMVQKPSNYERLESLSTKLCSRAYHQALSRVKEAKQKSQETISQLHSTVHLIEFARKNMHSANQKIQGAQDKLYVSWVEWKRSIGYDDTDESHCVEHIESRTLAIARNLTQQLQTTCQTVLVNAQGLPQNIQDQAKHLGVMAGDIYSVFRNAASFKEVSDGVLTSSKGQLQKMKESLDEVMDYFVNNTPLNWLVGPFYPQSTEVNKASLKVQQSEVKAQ

Test [3] concerns the target T3, SNAP23 (mouse (endogenous in L cells)) (UniProt O09044).
T3 sequence: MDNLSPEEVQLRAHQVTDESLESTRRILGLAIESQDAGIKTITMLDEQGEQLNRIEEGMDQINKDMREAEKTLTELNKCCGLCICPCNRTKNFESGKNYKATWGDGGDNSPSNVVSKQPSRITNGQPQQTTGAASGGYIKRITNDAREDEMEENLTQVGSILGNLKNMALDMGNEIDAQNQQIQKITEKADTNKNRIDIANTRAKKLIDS

Results are given in words; binding and its absence hold for the method and conditions named. In cells and extracts the contact can be indirect. Some results given as binding are weak or reduced against the parent protein; the word gives no strength.

B1: SNAP23 (protein, UniProt O09044 1-210)
chain: MDNLSPEEVQLRAHQVTDESLESTRRILGLAIESQDAGIKTITMLDEQGEQLNRIEEGMDQINKDMREAEKTLTELNKCCGLCICPCNRTKNFESGKNYKATWGDGGDNSPSNVVSKQPSRITNGQPQQTTGAASGGYIKRITNDAREDEMEENLTQVGSILGNLKNMALDMGNEIDAQNQQIQKITEKADTNKNRIDIANTRAKKLIDS
Turning to B1, the binding entry in test [1] and in test [2] was “binds” each time.

B2: Plin2 (protein, UniProt P43883 1-425)
chain: MAAAVVDPQQSVVMRVANLPLVSSTYDLVSSAYVSTKDQYPYLRSVCEMAEKGVKTVTSAAMTSALPIIQKLEPQIAVANTYACKGLDRMEERLPILNQPTSEIVASARGAVTGAKDVVTTTMAGAKDSVASTVSGVVDKTKGAVTGSVERTKSVVNGSINTVLGMVQFMNSGVDNAITKSELLVDQYFPLTQEELEMEAKKVEGFDMVQKPSNYERLESLSTKLCSRAYHQALSRVKEAKQKSQETISQLHSTVHLIEFARKNMHSANQKIQGAQDKLYVSWVEWKRSIGYDDTDESHCVEHIESRTLAIARNLTQQLQTTCQTVLVNAQGLPQNIQDQAKHLGVMAGDIYSVFRNAASFKEVSDGVLTSSKGQLQKMKESLDEVMDYFVNNTPLNWLVGPFYPQSTEVNKASLKVQQSEVKAQ
As to B2, the binding result in test [3] is “binds”.

B3: Plin1 (protein, UniProt Q8CGN5 1-517)
chain: MSMNKGPTLLDGDLPEQENVLQRVLQLPVVSGTCECFQKTYNSTKEAHPLVASVCNAYEKGVQGASNLAAWSMEPVVRRLSTQFTAANELACRGLDHLEEKIPALQYPPEKIASELKGTISTRLRSARNSISVPIASTSDKVLGATLAGCELALGMAKETAEYAANTRVGRLASGGADLALGSIEKVVEFLLPPDKESAPSSGRQRTQKAPKAKPSLVRRVSTLANTLSRHTMQTTAWALKQGHSLAMWIPGVAPLSSLAQWGASAAMQVVSRRQSEVRVPWLHNLAASQDESHDDQTDTEGEETDDEEEEEESEAEENVLREVTALPNPRGLLGGVVHTVQNTLRNTISAVTWAPAAVLGTVGRILHLTPAQAVSSTKGRAMSLSDALKGVTDNVVDTVVHYVPLPRLSLMEPESEFRDIDNPSAEAERKGSGARPASPESTPRPGQPRGSLRSVRGLSAPSCPGLDDKTEASARPGFLAMPREKPARRVSDSFFRPSVMEPILGRAQYSQLRKKS
For B3, the binding entry in test [3] was “no binding”.

B4: GLUT1 (protein, UniProt P17809 1-492)
chain: MDPSSKKVTGRLMLAVGGAVLGSLQFGYNTGVINAPQKVIEEFYNQTWNHRYGEPIPSTTLTTLWSLSVAIFSVGGMIGSFSVGLFVNRFGRRNSMLMMNLLAFVAAVLMGFSKLGKSFEMLILGRFIIGVYCGLTTGFVPMYVGEVSPTALRGALGTLHQLGIVVGILIAQVFGLDSIMGNADLWPLLLSVIFIPALLQCILLPFCPESPRFLLINRNEENRAKSVLKKLRGTADVTRDLQEMKEEGRQMMREKKVTILELFRSPAYRQPILIAVVLQLSQQLSGINAVFYYSTSIFEKAGVQQPVYATIGSGIVNTAFTVVSLFVVERAGRRTLHLIGLAGMAGCAVLMTIALALLERLPWMSYLSIVAIFGFVAFFEVGPGPIPWFIVAELFSQGPRPAAIAVAGFSNWTSNFIVGMCFQYVEQLCGPYVFIIFTVLLVLFFIFTYFKVPETKGRTFDEIASGFRQGGASQSDKTPEELFHPLGADSQV
Take B4: the binding entry in test [3] is “binds”.
